Earlier results in patent US11993596B2, “Fused tri-cyclic compound as PDE3/PDE4 dual inhibitor” (CHIA TAI TIANQING PHARMACEUTICAL GROUP CO., LTD., priority 2018, dated 2024).
For at least one compound, name, drawing or mass did not settle the structure.

Test system: PDE4
Settings: reported in literature; cited from earlier work

Q: Which “inhibitory activity against PDE4” value does the source give for `COc1cc2c(cc1OC)-c1c/c(=N\c3c(C)cc(C)cc3C)n(CCNC(N)=O)c(=O)n1CC2` [RPL554] here?
A: The value was “unsatisfactory”.

Q: Which “inhibitory activity against PDE4” value does the source give for `COc1cc2c(cc1OC)-c1cc(Oc3c(C(C)C)cccc3C(C)C)nc(=O)n1CC2` [RPL565] here?
A: Its value is “unsatisfactory”.
